No constants are given. Whether binding was seen depends on the method and setting. In cells and extracts the contact can be indirect. These calls come from enrichment with a bait or labelling near it, and not all partners need be listed. A no says only that the protein was not detected with the bait.
Tests used:
Experiment in all cases: proximity labelling; myc-SHP2-TurboID (WT or mutant) transfected in SHP2 knock-out HEK 293 cells; 100 uM biotin for 10 min at 37 C, without or with 100 ng/mL EGF (for WT also after 4 h with 1 uM TNO155); non-denaturing lysis, streptavidin magnetic beads, LC-MS/MS; hits: log2 fold-change >1 and p <0.05 over a TurboID-only control, or direct comparison of two samples
[1] = molecular target: myc-SHP2^T468M-TurboID (human) (UniProt Q06124)
[2] = molecular target: myc-SHP2^T42A-TurboID (human) (UniProt Q06124)
[3] = molecular target: myc-SHP2^T507K-TurboID (human) (UniProt Q06124)
[4] = molecular target: myc-SHP2^T52S-TurboID (human) (UniProt Q06124)
[5] = molecular target: myc-SHP2^WT-TurboID (human) (UniProt Q06124)
[6] = molecular target: myc-SHP2^R138Q-TurboID (human) (UniProt Q06124)
[7] = molecular target: myc-SHP2^E76K-TurboID (human) (UniProt Q06124)
[8] = molecular target: myc-SHP2^Q510K-TurboID (human) (UniProt Q06124)
[9] = molecular target: myc-SHP2^Q510E-TurboID (human) (UniProt Q06124)
[10] = molecular target: myc-SHP2^E139D-TurboID (human) (UniProt Q06124)
[11] = molecular target: myc-SHP2^Y279C-TurboID (human) (UniProt Q06124)

Amino acid sequences for entries named in this document (tags omitted). Residues count along the entry.
UniProt Q15388: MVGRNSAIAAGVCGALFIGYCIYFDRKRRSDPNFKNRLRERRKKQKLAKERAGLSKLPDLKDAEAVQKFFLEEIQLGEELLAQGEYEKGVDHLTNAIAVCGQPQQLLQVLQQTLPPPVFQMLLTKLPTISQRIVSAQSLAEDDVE
UniProt P38646, residues 47-679: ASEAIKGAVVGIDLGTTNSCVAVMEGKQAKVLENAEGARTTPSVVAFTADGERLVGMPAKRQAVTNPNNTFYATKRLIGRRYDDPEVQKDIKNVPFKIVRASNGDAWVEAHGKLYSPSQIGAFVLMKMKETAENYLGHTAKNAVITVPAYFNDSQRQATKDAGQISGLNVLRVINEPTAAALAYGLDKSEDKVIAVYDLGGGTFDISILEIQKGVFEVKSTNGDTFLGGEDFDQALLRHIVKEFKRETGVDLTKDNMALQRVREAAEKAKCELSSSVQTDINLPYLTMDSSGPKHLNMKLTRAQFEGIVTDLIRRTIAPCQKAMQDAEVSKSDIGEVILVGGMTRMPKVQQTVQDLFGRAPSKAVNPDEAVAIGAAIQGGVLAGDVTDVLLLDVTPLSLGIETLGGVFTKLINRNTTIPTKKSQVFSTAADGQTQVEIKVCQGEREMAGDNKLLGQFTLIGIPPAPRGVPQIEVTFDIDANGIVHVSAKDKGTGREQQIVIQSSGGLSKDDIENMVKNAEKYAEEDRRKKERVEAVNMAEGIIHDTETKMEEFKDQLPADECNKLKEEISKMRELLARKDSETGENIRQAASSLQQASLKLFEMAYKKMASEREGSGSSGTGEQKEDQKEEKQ

| binding [5] | Substance | binding [1] | binding [2] | binding [3] | binding [4] | binding [6] | binding [7] | binding [8] | binding [9] | binding [10] | binding [11] |
| --- | --- | --- | --- | --- | --- | --- | --- | --- | --- | --- | --- |
| no binding | NDUFB8 (from UniProt O95169 29-186) | no binding | no binding | no binding | no binding | no binding | no binding | no binding | no binding | no binding | no binding |
| no binding | Tom20 (from UniProt Q15388 1-145) | – | – | – | – | – | – | – | – | – | – |

| Substance | binding [5] | binding [1] | binding [2] | binding [3] | binding [4] | binding [6] | binding [7] | binding [8] | binding [9] | binding [10] | binding [11] |
| --- | --- | --- | --- | --- | --- | --- | --- | --- | --- | --- | --- |
| mortalin (HSPA9) (from UniProt P38646 47-679) | no binding | no binding | no binding | no binding | no binding | no binding | no binding | no binding | no binding | no binding | no binding |
